# According to patent publication US7851629B2, “Disubstituted phenylpiperidines as modulators of dopamine and serotonin neurotransmission” (NSAB, Filial af Neurosearch Sweden AB, Sverige, priority 2004, dated 2010):
# For at least one compound, name, drawing or mass did not settle the structure.
# Test system: extracellular 5-HT, dopamine and norepinephrine in the cortex
# Assay: Microdialysis in awake and freely moving rats, cortex monoamines
# Type: in vivo, rat
# Conditions: 5 mg/kg s.c., FIG. 1
# Description: The microdialysis technique (Ungerstedt, Herrera-Marschitz et al. 1982) is a well established technique for measuring extracellular levels of neurotransmitters (Ungerstedt 1991). The microdialysis technique was used to measure the effect of drugs upon the monoamine transmitters. The appended graphs (FIGS. 1-4) show the effects of one established antidepressant (citalopram) upon 5-HT in the cortex, as well as for three compounds claimed in the present invention (Examples 3, 5, and 6).
# Male Sprague-Dawley rats weighing 220-320 g were used throughout the experiments. Before the experiment the animals were group housed, five animals in each cage, with free access to water and food. The animals were housed at least one week after arrival prior to surgery and use in the experiments. […]
# We use a modified version (Waters, Lofberg et al. 1994) of the I-shaped probe (Santiago and Westerink 1990). […] Coordinates were calculated relative to bregma; dorsal striatum AP+1, ML±2.6, DV−6.3; Pf cortex, AP+3.2, 8° ML±1.2, DV−4.0 according to (Paxinos and Watson 1986). […]
# 30 μl of each sample was injected into the chromatograph. […] The currents generated by the two EC detectors are converted to digital data and evaluated using Chromelion software (Dionex, Sunnyvale, Calif.) on a PC. The method sample turn over time was 4.5 min and two parallel experiments are normally analysed simultaneously on the system. […]
structure (smiles),measurement,value
"CN(C)CCCC1(c2ccc(F)cc2)OCc2cc(C#N)ccc21 (stereo not shown) [citalopram, reference compound]",5-HT in the cortex,5-HT increase in the cortex
